Experimental data as given in patent US20090111753A1, “Nogo-A Polypeptide Fragments, Variant Nogo Receptor-1 Polypeptides, and Uses Thereof” (Yale University, priority 2004, published 2009).
Where a chain is given by its changes, count along the chain named. In names and notes the source's numbering stands. No constants are given. Whether binding was seen depends on the method and setting. Some results given as binding are weak or reduced against the parent protein; the word gives no strength. Blank lines part the entries; values can stand above or below the binder they belong to.

Legend:
Assay in all cases: AP-ligand binding, COS-7
[1] = molecular target: T1, human NgR1 alanine mutant 131 (human) (UniProt Q9BZR6)
T1 sequence: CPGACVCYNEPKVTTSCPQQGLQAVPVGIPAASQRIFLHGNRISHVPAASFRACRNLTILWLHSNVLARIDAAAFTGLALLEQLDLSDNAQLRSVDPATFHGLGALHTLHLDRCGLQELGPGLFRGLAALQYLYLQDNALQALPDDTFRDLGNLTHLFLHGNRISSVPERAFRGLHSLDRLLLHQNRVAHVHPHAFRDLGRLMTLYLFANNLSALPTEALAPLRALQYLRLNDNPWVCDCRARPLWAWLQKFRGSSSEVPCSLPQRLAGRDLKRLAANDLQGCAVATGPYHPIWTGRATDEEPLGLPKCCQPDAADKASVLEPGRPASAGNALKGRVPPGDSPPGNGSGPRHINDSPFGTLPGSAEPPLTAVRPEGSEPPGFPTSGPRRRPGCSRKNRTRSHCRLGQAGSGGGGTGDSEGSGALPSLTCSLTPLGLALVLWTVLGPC

[2] = molecular target: T2, human NgR1 alanine mutant 127, 151 (human) (UniProt Q9BZR6)
T2 sequence: T1 sequence with H101A, A105R, R125A

[3] = molecular target: T3, human NgR1 alanine mutant 227 (human) (UniProt Q9BZR6)
T3 sequence: T1 sequence with A105R, R201A

[4] = molecular target: T4, human NgR1 alanine mutant 95, 97, 122 (human) (UniProt Q9BZR6)
T4 sequence: T1 sequence with R69A, D71A, D96A, A105R

[5] = molecular target: T5, human NgR1 alanine mutant 127 (human) (UniProt Q9BZR6)
T5 sequence: T1 sequence with H101A, A105R

binding [1]: binds | binding [2]: binds | binding [3]: binds | binding [4]: binds | binding [5]: binds
B1: AP-Nogo-66 (ligand, UniProt Q9NQC3 1055-1120, looked up)
chain: RIYKGVIQAIQKSDEGHPFRAYLESEVAISEELVQKYSNSALGHVNCTIKELRRLFLVDDLVDSLK
notes: domain: Nogo-66; construct described elsewhere (Fournier 2001); also called AP-Ng66; Ng66; not shown: alkaline phosphatase (AP); construct described elsewhere

binding [1]: binds | binding [2]: binds | binding [3]: binds | binding [4]: binds | binding [5]: binds
B2: AP-fused Amino-Nogo fragment B4C (a.a. 950-1018) (ligand)
chain: LLPPDVSALATQAEIESIVKPKVLVKEAEKKLPSDTEKEDRSPSAIFSAELSKTSVVDLLYWRDIKKTG
notes: also called AmNg B4C; AP-B4C; not shown: alkaline phosphatase (AP), vector pcAP6
